Measurements reported in PubChem BioAssay AID1259425 (University of Nebraska Medical Center, 2018).

- Assay: 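Compare each knockdown with KSR1 silencing using changes in marker transcripts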 (primary screen)
- Cells: HCT116 human colon cancer cells
- Knock-down reagent: siRNA pool against human genes, 50 nM siRNA
- Detection: 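mRNA of six signature genes measured together by branched-DNA assay after 50 nM siRNA pool, blank removed, divided by geometric mean of two housekeeping genes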
- Scale: BNIP3L mRNA: higher = more BNIP3L transcript after knockdown; NDRG1 mRNA: higher = more NDRG1 transcript after knockdown; BNIP3 mRNA: higher = more BNIP3 transcript after knockdown; ALDOC mRNA: higher = more ALDOC transcript after knockdown; ACSL5 mRNA: higher = more ACSL5 transcript after knockdown
Shown is an unselected part of about 14,000 reagents tested. A reagent listed more than once was tested more than once; the source does not tell the runs apart. Not given: the time to read-out.

target gene	BNIP3L mRNA, set 1	NDRG1 mRNA, set 1	BNIP3 mRNA, set 1	ALDOC mRNA, set 1	ACSL5 mRNA, set 1
PJA1	0.123	0.257	0.403	0.0341	0.145
ATP5PD	0.0685	0.296	0.3	0.0181	0.145
PSMD11	0.154	0.767	0.233	0.059	0.132
IRF1	0.211	0.107	0.156	0.00821	0.198
SRSF7	0.355	0.222	0.351	0.0663	0.177
INSIG2	0.127	0.144	0.279	0.0255	0.0874
RPL14	0.165	0.838	0.446	0.0274	0.232
CCL20	0.0525	0.127	0.196	0.0162	0.152
GPX3	0.159	0.203	0.227	0.032	0.223
KRTAP1-5	0.383	0.382	0.404	0.189	0.419
TTLL5	0.0743	0.187	0.321	0.0136	0.208
TBC1D23	0.0647	0.0926	0.193	0.0461	0.143
MST1	0.0739	0.125	0.234	0.0247	0.167
GASK1B	0.0843	0.201	0.202	0.0172	0.152
MAP3K7CL	0.0439	0.478	0.25	0.0108	0.267
HNRNPDL	0.141	0.412	0.355	0.0464	0.14
ECHDC3	0.143	0.0892	0.385	0.0308	0.289
INSRR	0.0933	0.0467	0.282	0.0301	0.152
NR6A1	0.104	0.169	0.252	0.00465	0.0811
ACKR4	0.144	0.12	0.278	0.0354	0.129
PEF1	0.159	0.446	0.485	0.0319	0.253
PDE9A	0.0897	0.123	0.225	0.0204	0.131
PAXIP1	0.122	0.129	0.319	0.0632	0.0883
TMEM127	0.185	0.215	0.336	0.023	0.191
KIF5B	0.065	0.28	0.279	0.0203	0.271
FAXC	0.386	0.291	0.321	0.152	0.284
USP37	0.105	0.185	0.244	0.0311	0.146
LILRA2	0.11	0.219	0.26	0.0412	0.141
DVL2	0.0381	0.279	0.163	0.0189	0.181
ZSCAN12	0.0888	0.116	0.316	0.0248	0.116
FTCD	0.0918	0.124	0.187	0.0143	0.087
TATDN2	0.0778	0.213	0.278	0.0281	0.11
LIMK1	0.0655	0.213	0.244	0.0117	0.193
UBOX5	0.0991	0.167	0.383	0.0233	0.0827
DTNB	0.124	0.432	0.29	-0.00306	0.118
PADI4	0.0875	0.508	0.579	0.0101	0.165
TFDP1	0.0937	0.052	0.289	0.0141	0.162
PRPF18	0.145	0.0988	0.246	0.0085	0.184
LAMB3	0.346	0.79	0.639	0.048	0.302
STRIP2	0.0863	0.22	0.218	0.0342	0.302
YES1	0.109	0.14	0.298	0.0141	0.173
C1orf116	0.249	0.458	0.387	0.0263	0.482
C1orf116	0.123	0.377	0.37	0.0282	0.146
TRIAP1	0.171	0.331	0.319	0.0163	0.122
XRN2	0.0451	0.177	0.357	0.014	0.25
SBF1	0.0998	0.274	0.298	0.033	0.166
ADAMTS16	0.0762	0.247	0.308	0.0306	0.231
ERCC8	0.0516	0.105	0.201	0.0154	0.144
SBNO2	0.142	0.102	0.303	0.00829	0.176
H3-3B	0.121	0.0863	0.294	0.00566	0.123
